Reference: US20220363719A1 (Palatin Technologies, Inc., priority 2020, published 2022)

Test: general procedure: Fmoc solid-phase peptide synthesis; 2-chlorotrityl chloride resin; EDC/HOAt (cyclisation)
Details: whole synthesis, scale 1.0 mmol, side-chain lactam ring, sequence written open

Ac-Nle-Dab-His-D-Phe(4-F)-Arg-Trp-NH—(CH2)4—COOH
isolated mass: 73 mg | isolated yield: 6%
